Reference: PubChem BioAssay AID2685 (National Center for Advancing Translational Sciences (NCATS), 2010)
The list shows a part of the results. These are further read-outs of the screen, such as a control signal, another cell line or another target. No call is given for them. Compounds called inactive in the main read-out are mostly missing here. The note in brackets gives the kind of curve behind each potency; many fits are weak.

Assay: qHTS Assay for Lipid Storage Modulators in Drosophila S3 Cells;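 for cell number change: cells counted by Cell Tracker Red CMTPX staining in the red channel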
Conditions: BODIPY lipid droplet fluorescence, 18-24 h; for cell number change: measured here: cell count max response, cells fed with added oleic acid
How it was run: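 Drosophila S3 cells loaded with oleic acid (400 uM, as added) and compounds at several concentrations; lipid droplets imaged by 488-nm laser-scanning cytometry, 500–530 nm intensity and object ratio to cell channel. Percent activity normalized to 20 uM Triacsin C.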

[1] = measured here: lipid fluorescence (Fed channel) AC50, cells fed with added oleic acid
[2] = measured here: cell number channel AC50, cells fed with added oleic acid

Row | Structure (SMILES) | cell number change [%] | AC50 [1] | AC50 [2]
1 | COc1ccc(C(=O)N2CCN(c3ccc(NC(=O)c4cccs4)cc3)CC2)cc1 | -14.7 | 20.6 µM [falling, single point] | –
2 | NC(N)=N/N=C/c1ccc2cccc(OCc3ccccc3)c2n1 | -53 | – | –
3 | COCCNC(=O)C(c1ccc(C)cc1)N(C(=O)CCC(=O)Nc1ccccn1)C1CCCCC1 (configuration not stated) | 2.56 | 0.00461 µM [rising, full curve, poor fit] | –
4 | CC(C)(C)OC(=O)C(C)(C)Sc1nnc(N)s1 | 9.73 | – | 0.164 µM [falling, full curve, poor fit]
5 | CCOC(=O)C1CCN(C(=O)Cn2nc(C)c3c(C)n(-c4ccccc4)nc3c2=O)CC1 | 9.25 | 25.9 µM [rising, single point] | –
6 | COc1ccc(-c2csc(NC(=O)c3ccccc3NS(=O)(=O)c3ccc(F)c(F)c3)n2)cc1 | -10.5 | – | –
7 | COc1c(C)cccc1C(=O)NCCCNC(=O)c1ccc(C)nc1 | 1.32 | – | –
8 | C[C@H](NC(=O)[C@H](Cc1ccccc1)NC(=O)c1cc2cc(Cl)ccc2n1C)C(=O)O | -32.9 | – | 0.366 µM [falling, full curve]
9 | CCOC(=O)c1cc(NC(=O)N2CCOCC2)c(C)nc1C | – | 3.26 µM [rising, partial curve] | –
10 | CCCCCn1c(=O)[nH]c2cc(C(=O)N3CCN(C(=O)OCC)CC3)ccc2c1=O | – | 3.26 µM [falling, full curve] | –
11 | O=C(Nc1ccc(F)cc1)N1CCN(c2ccc3nnc(-c4ccc(F)cc4)n3n2)CC1 | -6.08 | 18.4 µM [falling, single point] | –
12 | CN(CC(=O)Nc1ccc(F)c(F)c1F)c1cnccn1 | 1.3 | 7.31 µM [falling, full curve, poor fit] | –
13 | Cc1sc(N2C(=O)C3C(C2=O)[C@H]2C=C[C@@H]3C2)c(C#N)c1C (some centres not stated) | 23.2 | 6.51 µM [falling, single point] | –
14 | CS(=O)(=O)N(CC(=O)NCc1ccccc1Cl)C1CCCCC1 | -40.9 | 10.3 µM [falling, partial curve] | 11.6 µM [falling, partial curve]
15 | O=C(NC1CCCCCC1)c1ccc(-n2cnnc2)cc1 | -33.1 | 10 µM [falling, partial curve] | 7.94 µM [falling, partial curve]
16 | CC(C)CCN(C(=O)c1ccncc1)c1c(N)n(Cc2ccccc2)c(=O)[nH]c1=O | 19.2 | 3.26 µM [falling, single point] | –
17 | Cc1onc(-c2c(Cl)cccc2Cl)c1NC(=O)NNc1ccccc1 | -37.7 | 29.1 µM [falling, single point] | 16.4 µM [falling, single point]

Part of the list above, with tabs:
Row	Structure (SMILES)	cell number change [%]	AC50 [1]	AC50 [2]
2	NC(N)=N/N=C/c1ccc2cccc(OCc3ccccc3)c2n1	-53	–	–
12	CN(CC(=O)Nc1ccc(F)c(F)c1F)c1cnccn1	1.3	7.31 µM [falling, full curve, poor fit]	–
